Results deposited as PubChem BioAssay AID1259254 (NCATS, 2017)
Test: 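Finding genes that stop cells copying their DNA twice in one cycle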 (primary screen). Cell system: human HCT116 colorectal cancer cells. Knock-down reagent: single siRNA against human genes. Time to read-out: 3 days. Detection: 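Imaged Hoechst DNA stain sorts each cell into a cycle phase by DNA amount; per plate, G2 fraction set to 0% for non-targeting and 100% for GMNN siRNA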. Reading the numbers: G2 robust z-score and G2 cells, % of GMNN control: higher = more G2 cells, more excess DNA replication. Rule for the call: 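An siRNA counts as active if its G2 robust z-score lies at least 5 MADs above the screen median; here such calls match roughly 38% of GMNN control or more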.
Shown is a random part of about 59,000 reagents. Of all reagents, about 1,550 (2.6%) got an active call. 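G2 share is only a proxy for re-replication; each gene was hit by three separate siRNAs, and active genes were retested.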 A number with no mark means an inactive call. Reagents against one gene are numbered here. Further read-outs or replicates are left out here. No sequences are given here. Not stated in the record: the amount of reagent.

IFT122 #1 → G2 robust z-score = -1; G2 cells, % of GMNN control = -4.1
IFT122 #2 → G2 robust z-score = -0.265; G2 cells, % of GMNN control = 1.1
IFT122 #3 → G2 robust z-score = -0.906; G2 cells, % of GMNN control = -3.41
TULP1 #1 → G2 robust z-score = -0.69; G2 cells, % of GMNN control = -1.89
TULP1 #2 → G2 robust z-score = -0.5; G2 cells, % of GMNN control = -0.551
TULP1 #3 → G2 robust z-score = 1.05; G2 cells, % of GMNN control = 10.3
ZXDA #1 → G2 robust z-score = 0.689; G2 cells, % of GMNN control = 7.82
ZXDA #2 → G2 robust z-score = -0.308; G2 cells, % of GMNN control = 0.802
ZXDA #3 → G2 robust z-score = 0.574; G2 cells, % of GMNN control = 7.01
FAM25EP #1 → G2 robust z-score = -0.658; G2 cells, % of GMNN control = -1.66
FAM25EP #2 → G2 robust z-score = 3.77; G2 cells, % of GMNN control = 29.5
FAM25EP #3 → G2 robust z-score = -1.11; G2 cells, % of GMNN control = -4.82

2 consecutive entries from above:
ZXDA #3 → G2 robust z-score = 0.574; G2 cells, % of GMNN control = 7.01
FAM25EP #1 → G2 robust z-score = -0.658; G2 cells, % of GMNN control = -1.66
